Results from the supplement of paper PMC11006884.
The entries are a selection whose mix differs from that of the whole data set.

Protein sequences, listed by entry. Tags and fused reporters are not part of them. Lines headed by an entry give the natural chain unless they say otherwise; changes in a name come on top.
UniProt Q9P253: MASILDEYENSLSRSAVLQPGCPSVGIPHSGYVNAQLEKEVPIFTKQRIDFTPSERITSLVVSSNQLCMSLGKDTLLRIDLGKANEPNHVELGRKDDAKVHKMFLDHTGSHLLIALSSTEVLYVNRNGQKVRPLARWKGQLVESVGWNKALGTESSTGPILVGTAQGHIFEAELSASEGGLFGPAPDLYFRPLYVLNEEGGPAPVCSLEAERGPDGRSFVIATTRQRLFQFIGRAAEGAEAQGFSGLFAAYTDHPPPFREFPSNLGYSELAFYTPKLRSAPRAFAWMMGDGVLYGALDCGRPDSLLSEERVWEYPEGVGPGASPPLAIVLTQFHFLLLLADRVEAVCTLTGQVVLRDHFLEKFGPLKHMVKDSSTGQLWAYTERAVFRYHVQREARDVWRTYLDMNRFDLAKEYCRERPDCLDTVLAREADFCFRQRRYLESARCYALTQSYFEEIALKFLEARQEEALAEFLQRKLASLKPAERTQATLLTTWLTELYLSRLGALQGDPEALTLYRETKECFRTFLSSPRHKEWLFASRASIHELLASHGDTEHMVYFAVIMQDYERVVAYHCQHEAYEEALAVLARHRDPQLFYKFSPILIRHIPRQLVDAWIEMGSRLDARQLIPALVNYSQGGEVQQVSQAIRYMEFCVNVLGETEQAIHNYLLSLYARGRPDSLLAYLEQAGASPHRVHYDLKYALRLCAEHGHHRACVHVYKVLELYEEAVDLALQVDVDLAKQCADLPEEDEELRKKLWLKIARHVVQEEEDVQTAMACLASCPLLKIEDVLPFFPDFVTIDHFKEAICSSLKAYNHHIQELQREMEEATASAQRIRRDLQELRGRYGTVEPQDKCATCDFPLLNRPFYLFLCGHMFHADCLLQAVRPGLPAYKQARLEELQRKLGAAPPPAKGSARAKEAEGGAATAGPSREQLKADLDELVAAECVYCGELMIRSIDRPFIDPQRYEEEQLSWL
UniProt Q9NUQ3: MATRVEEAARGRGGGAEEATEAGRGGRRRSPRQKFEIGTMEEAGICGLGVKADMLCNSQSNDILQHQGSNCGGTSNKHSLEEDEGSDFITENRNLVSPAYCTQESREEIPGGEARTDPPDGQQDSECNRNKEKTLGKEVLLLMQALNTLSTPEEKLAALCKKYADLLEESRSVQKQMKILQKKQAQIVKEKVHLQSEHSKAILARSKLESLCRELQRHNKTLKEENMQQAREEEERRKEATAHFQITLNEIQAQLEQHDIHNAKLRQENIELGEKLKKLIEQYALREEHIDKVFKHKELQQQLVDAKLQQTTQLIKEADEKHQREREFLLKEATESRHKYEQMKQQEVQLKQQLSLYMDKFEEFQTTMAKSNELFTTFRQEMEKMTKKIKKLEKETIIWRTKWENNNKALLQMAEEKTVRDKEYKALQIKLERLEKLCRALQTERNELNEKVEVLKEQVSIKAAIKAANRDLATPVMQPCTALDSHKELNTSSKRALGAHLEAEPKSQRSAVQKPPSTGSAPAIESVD
UniProt Q9NVH0: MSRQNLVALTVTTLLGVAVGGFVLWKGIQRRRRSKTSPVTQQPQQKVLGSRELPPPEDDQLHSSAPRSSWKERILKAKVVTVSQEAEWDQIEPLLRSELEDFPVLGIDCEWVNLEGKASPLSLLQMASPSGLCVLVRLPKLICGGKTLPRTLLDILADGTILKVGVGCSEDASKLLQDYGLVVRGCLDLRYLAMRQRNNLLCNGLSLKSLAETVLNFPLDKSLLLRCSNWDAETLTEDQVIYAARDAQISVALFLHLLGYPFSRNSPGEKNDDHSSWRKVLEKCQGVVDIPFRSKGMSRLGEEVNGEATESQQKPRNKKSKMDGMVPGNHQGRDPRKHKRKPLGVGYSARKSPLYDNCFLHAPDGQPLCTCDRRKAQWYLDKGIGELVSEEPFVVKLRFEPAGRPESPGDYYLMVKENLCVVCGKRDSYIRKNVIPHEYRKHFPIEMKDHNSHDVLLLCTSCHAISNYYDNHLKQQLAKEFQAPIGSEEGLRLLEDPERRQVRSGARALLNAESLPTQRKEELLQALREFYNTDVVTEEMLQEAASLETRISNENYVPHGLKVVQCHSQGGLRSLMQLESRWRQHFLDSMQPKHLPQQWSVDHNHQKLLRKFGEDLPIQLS
UniProt Q9UHB9: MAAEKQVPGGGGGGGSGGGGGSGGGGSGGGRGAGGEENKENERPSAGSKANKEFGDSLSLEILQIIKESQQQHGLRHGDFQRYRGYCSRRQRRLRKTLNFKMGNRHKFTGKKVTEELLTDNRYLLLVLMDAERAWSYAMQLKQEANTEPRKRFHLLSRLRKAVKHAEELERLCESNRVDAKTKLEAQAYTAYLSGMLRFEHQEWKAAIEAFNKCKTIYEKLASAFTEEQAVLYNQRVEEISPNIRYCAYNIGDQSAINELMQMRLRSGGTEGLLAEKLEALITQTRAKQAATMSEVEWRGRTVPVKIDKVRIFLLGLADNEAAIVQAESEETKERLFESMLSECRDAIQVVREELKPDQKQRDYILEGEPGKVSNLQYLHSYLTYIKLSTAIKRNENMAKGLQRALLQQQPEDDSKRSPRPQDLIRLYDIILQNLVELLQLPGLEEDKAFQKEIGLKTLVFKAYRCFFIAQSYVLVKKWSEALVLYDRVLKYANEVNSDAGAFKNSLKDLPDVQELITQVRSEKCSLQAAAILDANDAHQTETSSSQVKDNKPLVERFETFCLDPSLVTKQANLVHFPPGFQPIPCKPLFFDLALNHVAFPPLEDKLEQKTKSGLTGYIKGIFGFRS
UniProt Q9NXE4: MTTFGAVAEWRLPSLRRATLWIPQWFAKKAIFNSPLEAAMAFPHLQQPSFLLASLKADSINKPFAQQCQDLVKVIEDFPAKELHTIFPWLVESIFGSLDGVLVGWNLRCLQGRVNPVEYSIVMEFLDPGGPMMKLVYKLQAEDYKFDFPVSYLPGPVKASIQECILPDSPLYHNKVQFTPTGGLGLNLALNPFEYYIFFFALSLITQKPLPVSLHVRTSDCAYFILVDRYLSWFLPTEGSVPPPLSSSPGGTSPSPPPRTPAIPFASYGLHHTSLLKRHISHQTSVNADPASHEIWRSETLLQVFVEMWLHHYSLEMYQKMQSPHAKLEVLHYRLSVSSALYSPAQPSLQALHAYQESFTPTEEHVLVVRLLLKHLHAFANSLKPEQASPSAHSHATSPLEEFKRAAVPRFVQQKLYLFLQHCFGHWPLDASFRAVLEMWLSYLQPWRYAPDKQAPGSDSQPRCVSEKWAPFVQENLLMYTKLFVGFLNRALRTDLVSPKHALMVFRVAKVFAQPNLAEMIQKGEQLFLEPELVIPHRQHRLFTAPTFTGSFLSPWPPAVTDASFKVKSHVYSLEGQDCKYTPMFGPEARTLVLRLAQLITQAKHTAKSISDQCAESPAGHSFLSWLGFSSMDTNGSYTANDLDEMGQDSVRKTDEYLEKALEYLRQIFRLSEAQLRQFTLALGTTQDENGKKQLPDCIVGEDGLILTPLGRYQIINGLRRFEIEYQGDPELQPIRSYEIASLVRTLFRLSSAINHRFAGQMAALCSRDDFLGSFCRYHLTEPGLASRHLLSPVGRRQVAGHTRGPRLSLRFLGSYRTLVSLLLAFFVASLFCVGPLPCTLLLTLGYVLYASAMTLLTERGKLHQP
UniProt Q9P2R3: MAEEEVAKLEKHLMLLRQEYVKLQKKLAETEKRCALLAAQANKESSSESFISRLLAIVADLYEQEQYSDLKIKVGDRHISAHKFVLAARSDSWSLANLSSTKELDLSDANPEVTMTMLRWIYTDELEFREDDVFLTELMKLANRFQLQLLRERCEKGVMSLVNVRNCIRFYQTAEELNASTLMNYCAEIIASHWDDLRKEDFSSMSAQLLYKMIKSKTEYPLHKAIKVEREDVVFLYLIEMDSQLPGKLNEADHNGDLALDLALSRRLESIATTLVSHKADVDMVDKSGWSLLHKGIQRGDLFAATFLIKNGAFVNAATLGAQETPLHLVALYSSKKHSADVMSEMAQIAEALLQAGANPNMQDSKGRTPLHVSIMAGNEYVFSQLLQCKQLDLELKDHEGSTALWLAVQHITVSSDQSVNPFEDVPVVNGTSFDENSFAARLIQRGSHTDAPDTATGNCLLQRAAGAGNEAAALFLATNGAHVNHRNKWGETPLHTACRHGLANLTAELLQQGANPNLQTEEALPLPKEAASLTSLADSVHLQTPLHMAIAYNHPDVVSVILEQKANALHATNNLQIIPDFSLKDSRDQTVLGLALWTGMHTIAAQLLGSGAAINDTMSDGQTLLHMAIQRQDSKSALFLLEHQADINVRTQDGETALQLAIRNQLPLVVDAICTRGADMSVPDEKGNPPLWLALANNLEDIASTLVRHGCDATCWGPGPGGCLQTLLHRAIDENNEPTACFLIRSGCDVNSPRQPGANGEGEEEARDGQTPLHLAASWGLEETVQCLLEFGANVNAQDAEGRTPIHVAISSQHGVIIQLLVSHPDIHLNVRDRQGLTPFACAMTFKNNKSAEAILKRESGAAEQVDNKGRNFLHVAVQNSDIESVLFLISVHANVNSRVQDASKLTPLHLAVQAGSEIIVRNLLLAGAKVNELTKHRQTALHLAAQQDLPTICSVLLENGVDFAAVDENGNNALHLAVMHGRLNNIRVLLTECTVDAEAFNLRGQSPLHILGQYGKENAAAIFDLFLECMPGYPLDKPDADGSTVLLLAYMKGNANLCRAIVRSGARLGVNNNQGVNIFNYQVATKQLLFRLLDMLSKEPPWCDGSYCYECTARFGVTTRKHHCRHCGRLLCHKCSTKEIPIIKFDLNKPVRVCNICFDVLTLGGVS
UniProt Q9UBB4: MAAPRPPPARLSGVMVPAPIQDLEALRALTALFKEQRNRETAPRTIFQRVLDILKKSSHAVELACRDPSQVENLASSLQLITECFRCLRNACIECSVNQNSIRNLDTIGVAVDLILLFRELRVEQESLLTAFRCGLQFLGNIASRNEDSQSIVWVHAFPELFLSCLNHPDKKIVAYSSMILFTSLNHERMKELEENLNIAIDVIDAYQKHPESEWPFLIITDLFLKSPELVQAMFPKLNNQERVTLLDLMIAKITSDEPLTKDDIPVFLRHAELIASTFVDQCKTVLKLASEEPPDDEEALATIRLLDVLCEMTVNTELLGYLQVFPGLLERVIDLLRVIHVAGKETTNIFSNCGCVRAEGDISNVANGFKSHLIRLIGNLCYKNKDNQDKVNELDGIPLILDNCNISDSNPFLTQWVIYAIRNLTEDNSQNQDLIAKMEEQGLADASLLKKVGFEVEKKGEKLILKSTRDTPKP
UniProt Q9NVN8: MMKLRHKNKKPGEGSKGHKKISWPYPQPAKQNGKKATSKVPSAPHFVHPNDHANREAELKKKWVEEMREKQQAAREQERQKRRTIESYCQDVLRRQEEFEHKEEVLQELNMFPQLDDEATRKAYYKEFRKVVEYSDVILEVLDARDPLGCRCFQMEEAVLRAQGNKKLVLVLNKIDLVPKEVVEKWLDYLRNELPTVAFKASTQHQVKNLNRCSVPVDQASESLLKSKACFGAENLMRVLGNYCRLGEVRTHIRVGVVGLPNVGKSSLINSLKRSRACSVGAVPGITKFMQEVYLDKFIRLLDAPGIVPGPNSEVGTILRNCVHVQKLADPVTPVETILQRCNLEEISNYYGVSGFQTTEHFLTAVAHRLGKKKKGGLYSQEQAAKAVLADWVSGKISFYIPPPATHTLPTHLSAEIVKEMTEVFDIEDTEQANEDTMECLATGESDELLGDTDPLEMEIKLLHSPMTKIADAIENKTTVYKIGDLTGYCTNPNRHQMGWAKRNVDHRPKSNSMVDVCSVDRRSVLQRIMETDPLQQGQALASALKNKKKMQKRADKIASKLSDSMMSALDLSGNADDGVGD
UniProt Q9NUQ8: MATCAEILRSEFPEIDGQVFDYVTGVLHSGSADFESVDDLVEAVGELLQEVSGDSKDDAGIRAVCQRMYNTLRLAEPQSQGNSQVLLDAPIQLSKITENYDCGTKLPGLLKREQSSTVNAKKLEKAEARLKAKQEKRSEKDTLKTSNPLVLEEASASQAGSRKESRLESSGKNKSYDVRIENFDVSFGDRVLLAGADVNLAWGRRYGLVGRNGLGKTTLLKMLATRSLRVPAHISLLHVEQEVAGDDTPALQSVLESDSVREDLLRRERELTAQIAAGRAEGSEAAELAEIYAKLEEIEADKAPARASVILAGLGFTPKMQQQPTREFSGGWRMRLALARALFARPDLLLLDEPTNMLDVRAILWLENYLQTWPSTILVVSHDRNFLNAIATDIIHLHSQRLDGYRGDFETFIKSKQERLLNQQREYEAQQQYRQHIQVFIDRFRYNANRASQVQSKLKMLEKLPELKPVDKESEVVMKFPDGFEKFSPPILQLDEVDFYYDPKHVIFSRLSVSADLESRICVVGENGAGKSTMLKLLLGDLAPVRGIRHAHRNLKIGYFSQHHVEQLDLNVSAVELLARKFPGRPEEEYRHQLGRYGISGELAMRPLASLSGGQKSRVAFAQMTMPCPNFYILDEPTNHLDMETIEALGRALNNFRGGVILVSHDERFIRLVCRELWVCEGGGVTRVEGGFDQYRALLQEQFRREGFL

compound: COC(=O)C#Cc1ccccc1 [methyl 3-phenylpropiolate]; assay: log2 ratio of iodoacetamide-alkyne labeling of the cysteine site, DMSO over compound (competition); higher = stronger covalent engagement of the cysteine by the compound, active = 1 or more; details: 500 µM; treatment time 1 h; system: HEK293T cell lysate
In short: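 HEK293T lysate (2 mg/mL) was incubated with electrophile (500 µM) or vehicle for 1 h at ambient temperature and then with iodoacetamide alkyne for 1 h. Labelled proteins were clicked to sCIP-TMT reagents, pooled, digested, enriched on streptavidin and measured by Orbitrap Eclipse LC-MS/MS with FAIMS, with FragPipe quantification. The per-cysteine log2 competition ratio is mean control-channel reporter intensity over mean compound-channel reporter intensity. Across three replicates with duplicate channels, cysteines quantified in only one replicate were excluded.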

Target	log2 ratio of iodoacetamide-alkyne labeling
LYAR C51 (UniProt Q9NX58)	inactive: 0.0295
STK39 C237 (UniProt Q9UEW8)	inactive: 0.227
MRPL39 C335 (UniProt Q9NYK5)	inactive: 0.184
ZMYM2 C1331 (UniProt Q9UBW7)	inactive: 0.196
DDX56 C298 (UniProt Q9NY93)	inactive: 0.522
COPG2 C325 (UniProt Q9UBF2)	inactive: 0.149
NDRG3 C375 (UniProt Q9UGV2)	inactive: -0.0674
UniProt Q9NYP9_C107	inactive: 0.197
LARS C546 (UniProt Q9P2J5)	inactive: 0.158
VPS18 C22 (UniProt Q9P253)	inactive: 0.542
FANCI C56 (UniProt Q9NVI1)	inactive: 0.281
UniProt Q9NUQ3_C101	inactive: 0.733
CHD7 C909 (UniProt Q9P2D1)	inactive: 0.159
STK39 C450 (UniProt Q9UEW8)	inactive: 0.0249
UniProt Q9NVH0_C109	inactive: 0.141
NDUFB11 C141 (UniProt Q9NX14)	inactive: 0.257
BSDC1 C99 (UniProt Q9NW68)	inactive: 0.584
MED17 C241 (UniProt Q9NVC6)	inactive: 0.182
NCDN C158 (UniProt Q9UBB6)	inactive: -0.218

Target	log2 ratio of iodoacetamide-alkyne labeling
SRP68 C247 (UniProt Q9UHB9)	inactive: 0.197
SMPD4 C614 (UniProt Q9NXE4)	inactive: -0.437
RCOR3 C233 (UniProt Q9P2K3)	inactive: 0.173
ANKFY1 C460 (UniProt Q9P2R3)	active: 1.44
UniProt Q9NUQ3_C480	inactive: 0.639
OGFR C87 (UniProt Q9NZT2)	inactive: 0.518
ATXN10 C134 (UniProt Q9UBB4)	inactive: 0.126
TMOD3 C150 (UniProt Q9NYL9)	inactive: 0.855
FAM120A C279 (UniProt Q9NZB2)	inactive: -0.00137
MPP6 C236 (UniProt Q9NZW5)	inactive: 0.488
SRP68 C562 (UniProt Q9UHB9)	inactive: 0.0408
NECAP2 C133 (UniProt Q9NVZ3)	inactive: 0.451
LARS C522 (UniProt Q9P2J5)	inactive: -0.28
PIH1D1 C117 (UniProt Q9NWS0)	inactive: -0.0018
GNL3L C518 (UniProt Q9NVN8)	inactive: 0.778
ANKIB1 C662 (UniProt Q9P2G1)	inactive: 0.119
ABCF3 C102 (UniProt Q9NUQ8)	inactive: 0.445
ARHGEF12 C921 (UniProt Q9NZN5)	inactive: 0.718
TES C364 (UniProt Q9UGI8)	inactive: 0.125

Given bar-delimited: part of the list above
Target | log2 ratio of iodoacetamide-alkyne labeling
SRP68 C247 (UniProt Q9UHB9) | inactive: 0.197
SMPD4 C614 (UniProt Q9NXE4) | inactive: -0.437
RCOR3 C233 (UniProt Q9P2K3) | inactive: 0.173
ANKFY1 C460 (UniProt Q9P2R3) | active: 1.44
UniProt Q9NUQ3_C480 | inactive: 0.639
OGFR C87 (UniProt Q9NZT2) | inactive: 0.518
ATXN10 C134 (UniProt Q9UBB4) | inactive: 0.126
